These are yes or no findings as the source states them, for the method shown. Some binding calls cover weakened binding; strength is not graded here.
Legend:
[1] = biological target: ectodomain of the human IL-4 receptor (IL-4Ra) (human) (UniProt P24394); experiment: SPR, binding constant shown in FIG. 3
[2] = biological target: ectodomain of the human IL-4 receptor (IL-4Ra) (human) (UniProt P24394); experiment: SPR, Biacore 2000, IL-4Ra ectodomain coated on CM5 chip, analyte in flow

By UniProt entry, the sequences of proteins in these tests, tags left out. Residues count along the entry.
UniProt P24394, residues 26-232: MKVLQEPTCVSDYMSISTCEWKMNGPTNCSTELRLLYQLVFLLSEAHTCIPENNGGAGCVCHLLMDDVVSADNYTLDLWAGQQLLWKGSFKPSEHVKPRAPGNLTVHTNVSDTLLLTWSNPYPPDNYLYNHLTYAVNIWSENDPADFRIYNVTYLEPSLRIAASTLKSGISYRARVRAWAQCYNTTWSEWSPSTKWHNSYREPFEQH

B1: AP-1 peptide (peptide)
peptide: KRLDRN
binding [1]: binds | binding [2]: binds
